{"source": "patent US7820624B2", "about": "“Peptide ligands” (ICH Productions Limited, priority 2003, dated 2010)", "note": "Some results were stated once for a whole list of compounds, not compound by compound."}
{"test_system": "human monocyte-derived immature dendritic cells", "experiment": "LID (lipid-peptide-DNA) transfection of immature dendritic cells, EGFP by FACS and 7AAD cell death", "format": "cell-based", "conditions": "day 4 cells, LID with lipofectin (FIG. 4b)", "procedure": "Lipopolyplex (LID) transfection complexes comprising lipid (L), peptide (in the form of a peptide derivative as described above) (I) and DNA (D) were prepared. The lipid component was Lipofectin or Lipofectamine 2000 (Invitrogen Ltd, Paisley, UK), the peptide component was a synthesized peptide A to F, 6 or 6J derivative, as described in Table 7 above, and the DNA was the plasmid pEGFP-N1 (Clontech, BD Biosciences, Palo Alto, Calif.)\nIn the transfection complex, peptide component to DNA charge ratios (+/−) were used at 1.5:1, 3:1 and 7:1. The lipid\ncomponent (Lipofectin or Lipofectamine 2000) was maintained at a constant proportion, by weight, relative to DNA of 0.75:1. Prior to making transfection complexes, in method A the lipid component was diluted to a concentration of 15 μg per ml, the peptide was prepared at 0.1 mg/ml and the DNA (plasmid pEGFP-N1, BD Biosciences, Cowley, UK, prepared using EndoFree plasmid kit, Qiagen Ltd, Crawley, UK) was at 10 μg per ml. All dilutions were performed with OptiMEM reduced serum tissue culture medium (Life Technologies Ltd, Paisley, UK). In method B prior to making transfection complexes the lipid component was diluted to a concentration of 30 μg per ml, the peptide was prepared at 0.1 mg/ml and the DNA (plasmid pEGFP-N1, BD Biosciences, Cowley, UK, prepared using EndoFree plasmid kit, Qiagen Ltd, Crawley, UK) was at […]. All dilutions were performed in serum-free RPMI.\nTransfection complexes were made by mixing the components in the order 1) lipid (50 μl) then 2) peptide (70 μl) and finally 3) DNA (50 μl), then diluting with OptiMEM or serum free RPMI, as appropriate, to a concentration relative to the DNA component of 2 μg DNA per […] (OptiMEM) or 500 μl (RPMI).\nImmature day 6 dendritic cells, obtained as described in Example 1(v) above, were plated into a 48 well plate at 5×10^4 cells per well in complete media and allowed to settle for 3 hours at 37° C. 300 μl or 500 μl (as appropriate) of the transfection complex obtained as described above was added to each well. […]"}
{"substance": "APSNSTA (Synthetic peptide binding to dendritic cells)", "Percentage of dendritic cells transfected": "over 10%"}
{"substance": "FPRAPHH (Synthetic peptide binding to dendritic cells)", "Percentage of dendritic cells transfected": "over 10%"}
{"substance": "SHVKLNS (Synthetic peptide binding to dendritic cells)", "Percentage of dendritic cells transfected": "over 10%"}
